{"source": "PubChem BioAssay AID652259 (Drosophila RNAi Screening Center, 2013)", "aim": "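Genome-wide hunt for genes that control Wingless pathway activity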 (primary screen)", "cells": "Drosophila clone 8 imaginal disc epithelial cells", "reagent": "long dsRNA against Drosophila genes", "conditions": "pathway stimulated by co-transfected Wingless expression plasmid", "read-out": "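Firefly luciferase from a tcf-site Wingless reporter, measured alongside co-transfected Renilla luciferase that tracks transfection; pathway stimulated by a Wingless plasmid; the firefly-to-Renilla ratio is not deposited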", "scale": "firefly reporter light: higher = more Wg reporter light, before normalisation; Renilla control light: higher = more transfected or surviving cells", "rule for the call": "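a knock-down is a candidate when at least two out of four statistical tests show it departing from its plate mean; one test alone signals a weak candidate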", "calls": "active = candidate regulator (raises or lowers reporter); inactive = not a candidate", "note": "The screen tested about 22,000 reagents; below is a random part of those with a known target gene and a result. Over the whole deposit, 233 (1.1%) were called active. 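Light values are raw, unnormalised plate reads; the ratio scores behind the reporter calls were not deposited.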 Unmarked entries are inactive. Not given: the amount of reagent, the time to read-out, the dose of the treatment."}
{"target gene": "CG13068", "DRSC id": "DRSC09951", "firefly reporter light, replicate 1": 10537, "Renilla control light, replicate 1": 5221}
{"target gene": "Fit1", "DRSC id": "DRSC08450", "firefly reporter light, replicate 1": 8500, "Renilla control light, replicate 1": 1718}
{"target gene": "CG32812", "DRSC id": "DRSC18478", "firefly reporter light, replicate 1": 16443, "Renilla control light, replicate 1": 10325}
{"target gene": "CG32833", "DRSC id": "DRSC04596", "firefly reporter light, replicate 1": 8154, "Renilla control light, replicate 1": 2501}
{"target gene": "CG13321", "DRSC id": "DRSC06358", "firefly reporter light, replicate 1": 5588, "Renilla control light, replicate 1": 1264}
{"target gene": "Ada3", "DRSC id": "DRSC20321", "firefly reporter light, replicate 1": 24404, "Renilla control light, replicate 1": 9216}
{"target gene": "Ada3", "DRSC id": "DRSC20322", "firefly reporter light, replicate 1": 20551, "Renilla control light, replicate 1": 8084}
{"target gene": "CG14362", "DRSC id": "DRSC14824", "firefly reporter light, replicate 1": 15313, "Renilla control light, replicate 1": 3991}
{"target gene": "CG10657", "DRSC id": "DRSC09768", "firefly reporter light, replicate 1": 5106, "Renilla control light, replicate 1": 2312}
{"target gene": "CG13917", "DRSC id": "DRSC08386", "firefly reporter light, replicate 1": 18028, "firefly reporter light, replicate 2": 7.48e5, "Renilla control light, replicate 1": 6087, "Renilla control light, replicate 2": 3.41e5}
{"target gene": "eloF", "DRSC id": "DRSC15162", "firefly reporter light, replicate 1": 11722, "Renilla control light, replicate 1": 3687}
{"target gene": "ps", "DRSC id": "DRSC15149", "firefly reporter light, replicate 1": 11698, "Renilla control light, replicate 1": 3522}
{"target gene": "ps", "DRSC id": "DRSC15151", "firefly reporter light, replicate 1": 10260, "Renilla control light, replicate 1": 2620}
{"target gene": "ps", "DRSC id": "DRSC15152", "reporter change call, replicate 1": "Wg reporter activity raised (active)", "firefly reporter light, replicate 1": 20370, "Renilla control light, replicate 1": 2514}
{"target gene": "ps", "DRSC id": "DRSC16388", "firefly reporter light, replicate 1": 9991, "Renilla control light, replicate 1": 1968}
{"target gene": "CG4597", "DRSC id": "DRSC10432", "firefly reporter light, replicate 1": 1335, "firefly reporter light, replicate 2": 6519, "Renilla control light, replicate 1": 870, "Renilla control light, replicate 2": 2919}
{"target gene": "Mcm2", "DRSC id": "DRSC16734", "firefly reporter light, replicate 1": 22179, "Renilla control light, replicate 1": 4977}
